Assay results: PubChem BioAssay AID236 (DTP/NCI, 2004)
The list does not hold the whole screen: it is rich in T/C values a quarter to a half above the control, in often repeated tests (any T/C) and in doses without a T/C. Other doses and runs of a compound stand elsewhere. T/C: endpoint of the treated group in % of that of the vehicle group. Some doses have a count of surviving animals in place of a T/C: the source files T/C as zero there, which appears to mark a toxic dose or a test without result, not a measured value. Some doses without a T/C left all or most animals alive at the check, yet need not have been tolerated: the source hardly ever lists a survival T/C far under the control, and the zero likely stands for such cases as well. Survivors were counted at the toxicity check, usually on the fifth day, unless a day is given; later deaths do not show. Schedules are NCI's codes, taken here to give the interval after Q, in days (D) or hours (H), and the number of doses after X. Some doses were run more than once; the values are given in rising order. Some schedule codes hold Z or #, which are not explained here. For survival time, the PubChem record calls one and a half times the control and up active, and a quarter to a half above the control has no call in these data; cut-offs in other NCI protocols can differ. Some T/C values are followed by the survivors on the day toxicity was checked, most often the fifth; without a count, all were alive then.

Test system: AK4 lymphoid leukemia ip, C3AKF1 mice, survival
Experiment: NCI In Vivo Anticancer Drug Screen. Data for tumor model AK4 Lymphoid Leukemia (intraperitoneal) in C3AKF1 (CHKRF1) mice
Details: T/C endpoint: median survival time, higher T/C = longer survival
Description: The antitumor activity of compounds was measured in mice bearing transplantable tumors. Survival or tumor size were measured and the results are expressed as the measurement made in the treated group (T) divided by the measurement made in the vehicle treated control group (C). The tumor model used in this assay is AK4 Lymphoid Leukemia (intraperitoneal) in C3AKF1 (CHKRF1) mice

[1] = dose: 50.0 mg/kg/injection, schedule: Q01DX010 (ip), vehicle: saline
[2] = dose: 200.0 mg/kg/injection, schedule: Q01DX010 (ip), vehicle: saline
[3] = dose: 100.0 mg/kg/injection, schedule: Q01DX010 (ip), vehicle: saline
[4] = dose: 16.0 mg/kg/injection, schedule: Q01DX010 (ip), vehicle: saline
[5] = dose: 10.0 mg/kg/injection, schedule: Q01DX010 (ip), vehicle: saline
[6] = dose: 40.0 mg/kg/injection, schedule: Q01DX010 (ip), vehicle: saline
[7] = dose: 25.0 mg/kg/injection, schedule: Q01DX010 (sc), vehicle: steroid suspending solution
[8] = dose: 0.4 mg/kg/injection, schedule: Q01DX010 (ip), vehicle: other
[9] = dose: 4.0 mg/kg/injection, schedule: Q01DX010 (ip), vehicle: saline
[10] = dose: 0.5 mg/kg/injection, schedule: Q01DX010 (ip), vehicle: saline
[11] = dose: 25.0 mg/kg/injection, schedule: Q01DX010 (ip), vehicle: saline
[12] = dose: 125.0 micrograms/kg/injection, schedule: Q01DX010 (ip), vehicle: saline
[13] = dose: 500.0 micrograms/kg/injection, schedule: Q01DX010 (ip), vehicle: saline
[14] = dose: 27.0 mg/kg/injection, schedule: Q01DX010 (ip), vehicle: saline
[15] = dose: 2.5 mg/kg/injection, schedule: Q01DX010 (ip), vehicle: saline
[16] = dose: 5.0 mg/kg/injection, schedule: Q01DX010 (ip), vehicle: saline
[17] = dose: 250.0 mg/kg/injection, schedule: Q01DX010 (ip), vehicle: saline

CCN(CC)CCNc1ccc(C)c2sc3ccccc3c(=O)c12
T/C [1]: 138 % of control
survivor count [2]: 6 of 6

Cc1cc2nc3c(=O)[nH]c(=O)nc-3n(CC(O)C(O)C(O)C(O)CO)c2cc1C (centres undefined)
survivor count [1]: 6 of 6
survivor count [3]: 6 of 6

C=CC(CN1CC1)OC(C)=O (centres undefined)
survivor count [4]: 6 of 6

CS(=O)(=O)OCC(O)C(O)C(O)C(O)COS(C)(=O)=O (centres undefined)
survivor count [1]: 4 of 7

O=c1[nH]cc(F)c(=O)[nH]1
T/C [5]: 131 % of control

C[n+]1c2ccccc2nc2c(N)cc(N)cc21
survivor count [6]: 0 of 6

C[C@]12C=CC(=O)C=C1CC[C@@H]1[C@@H]2C(=O)C[C@@]2(C)[C@H]1CC[C@]2(O)C(=O)CO
survivor count (dose: 12.5 mg/kg/injection, schedule: Q01DX010 (sc), vehicle: steroid suspending solution): 6 of 6
survivor count (dose: 12.5 mg/kg/injection, schedule: Q01DX Z (sc), vehicle: steroid suspending solution): 6 of 6
survivor count [7]: 6 of 6
survivor count (dose: 25.0 mg/kg/injection, schedule: Q01DX Z (sc), vehicle: steroid suspending solution): 6 of 6
T/C (dose: 100.0 mg/kg/injection, schedule: Q01DX Z (sc), vehicle: steroid suspending solution): 126 % of control

Nc1nc(N)c2nc(CNc3ccc(C(=O)NC(CCC(=O)O)C(=O)O)cc3)cnc2n1 (centres undefined)
T/C (dose: 0.05 mg/kg/injection, schedule: Q01DX010 (ip), vehicle: other): 130 % of control
T/C [8]: 130 % of control
survivor count [8]: 0 of 6

Nc1nc(=S)c2[nH]cnc2[nH]1
T/C (dose: 5.0 mg/kg/injection, schedule: Q01DX010 (ip), vehicle: other): 128 % of control
T/C (dose: 10.0 mg/kg/injection, schedule: Q01DX010 (ip), vehicle: other): 135 % of control

COc1ccc2c(c1OC)C(=O)O[C@@H]2[C@H]1c2c(cc3c(c2OC)OCO3)CCN1C
survivor count (dose: 62.5 mg/kg/injection, schedule: Q01DX010 (ip), vehicle: saline): 6 of 6

NC(Cc1ccc(N(CCCl)CCCl)cc1)C(=O)O (centres undefined)
T/C [9]: 143 % of control

CC(CCC(C)OS(C)(=O)=O)OS(C)(=O)=O (centres undefined)
T/C [4]: 127 % of control

CS(=O)(=O)OCCCl
T/C (dose: 150.0 mg/kg/injection, schedule: Q01DX010 (ip), vehicle: saline): 137 % of control

NC(=O)N(CCCl)N=O
T/C [10]: 135 % of control
T/C [9]: 125 % of control

O=NN(CCCl)C(=O)NCCCl
T/C (dose: 3.13 mg/kg/injection, schedule: Q01DX010 (ip), vehicle: saline): 127 and 140 % of control
survivor count [11]: 6 of 6

C[C@H]1C(=O)O[C@@H]2CCN3CC=C(COC(=O)[C@](C)(O)[C@@]1(C)O)[C@H]23
T/C [11]: 129 % of control

O=c1c(O)cccc2cc(O)c(O)c(O)c12
survivor count [1]: 6 of 6
survivor count [3]: 6 of 6
survivor count [2]: 6 of 6

CN1CC[C@]23c4c5ccc(O)c4O[C@H]2C(=O)CC[C@H]3[C@H]1C5
survivor count [4]: 6 of 6
survivor count (dose: 32.0 mg/kg/injection, schedule: Q01DX010 (ip), vehicle: saline): 6 of 6

CC1CCOS(=O)O1 (centres undefined)
survivor count [5]: 6 of 6
survivor count (dose: 80.0 mg/kg/injection, schedule: Q01DX010 (ip), vehicle: saline): 6 of 6

CC[C@]1(O)C[C@H]2CN(CCc3c([nH]c4ccccc34)[C@@](C(=O)OC)(c3cc4c(cc3OC)N(C=O)[C@H]3[C@@](O)(C(=O)OC)[C@H](OC(C)=O)[C@]5(CC)C=CCN6CC[C@]43[C@@H]65)C2)C1
T/C (dose: 0.25 mg/kg/injection, schedule: Q01DX010 (ip), vehicle: saline): 125 % of control
survivor count [10]: 6 of 6
survivor count (dose: 0.5 mg/kg/injection, schedule: Q01DX Z (ip), vehicle: saline): 2 of 6 and 6 of 6
T/C [12]: 137 % of control
T/C (dose: 250.0 micrograms/kg/injection, schedule: Q01DX010 (ip), vehicle: saline): 131 % of control
T/C [13]: 143 % of control

O[C@H](CN1CC1)[C@@H](O)CN1CC1
T/C [12]: 129 % of control
T/C [13]: 147 % of control

[I][Hg][CH2]C1COC([CH2][Hg][I])CO1 (centres undefined)
survivor count (dose: 6.25 mg/kg/injection, schedule: Q01DX010 (ip), vehicle: saline): 6 of 6
survivor count (dose: 12.5 mg/kg/injection, schedule: Q01DX010 (ip), vehicle: saline): 6 of 6
survivor count [11]: 6 of 6
survivor count [1]: 4 of 6 and 6 of 6

NC(Cc1c[nH]c2ccc(N(CCCl)CCCl)cc12)C(=O)O (centres undefined)
T/C [10]: 143 % of control
T/C (dose: 1.0 mg/kg/injection, schedule: Q01DX010 (ip), vehicle: saline): 137 % of control

CN(Cc1cnc2nc(N)nc(N)c2n1)c1ccc(C(=O)N[C@@H](CCC(=O)O)C(=O)O)cc1
T/C (dose: 0.19 mg/kg/injection, schedule: Q01DX Z (ip), vehicle: saline): 133 % of control
T/C (dose: 0.38 mg/kg/injection, schedule: Q01DX Z (ip), vehicle: saline): 144 % of control
T/C (dose: 1.5 mg/kg/injection, schedule: Q01DX Z (ip), vehicle: saline): 144 and 146 % of control
T/C (dose: 3.0 mg/kg/injection, schedule: Q01DX010 (ip), vehicle: other): 131 % of control [4 of 6 alive]
survivor count (dose: 3.0 mg/kg/injection, schedule: Q01DX Z (ip), vehicle: saline): 3 of 6 and 6 of 6

O=C(Nc1ccc(NC2=NCCN2)cc1)c1ccc(C(=O)Nc2ccc(NC3=NCCN3)cc2)cc1
T/C (dose: 8.0 mg/kg/injection, schedule: Q01DX010 (ip), vehicle: saline): 130 % of control
T/C [4]: 135 % of control

CN(C)c1ccc(/C=C\c2ccnc3ccccc23)cc1
survivor count (dose: 12.0 mg/kg/injection, schedule: Q01DX010 (ip), vehicle: saline): 6 of 6
survivor count (dose: 18.0 mg/kg/injection, schedule: Q01DX010 (ip), vehicle: saline): 6 of 6
survivor count [14]: 6 of 6
survivor count [6]: 6 of 6

CN(C)[C@@H]1C(=O)C(C(N)=O)=C(O)[C@@]2(O)C(=O)C3=C(O)c4c(O)cccc4C[C@H]3C[C@@H]12
survivor count (dose: 120.0 mg/kg/injection, schedule: Q01DX010 (ip), vehicle: saline): 0 of 6

C[C@@H]1C[C@@H]([C@H](O)CC2CC(=O)NC(=O)C2)C(=O)[C@@H](C)C1
T/C [6]: 128 % of control
survivor count [6]: 5 of 6

CN(N=O)C(=O)NC(C=O)C(O)C(O)C(O)CO (centres undefined)
T/C [14]: 125 % of control
T/C [6]: 143 % of control

S=c1nc[nH]c2nc[nH]c12
T/C (dose: 5.0 mg/kg/injection, schedule: Q01DX010 (ip), vehicle: alkali diluted with saline): 125 % of control
survivor count (dose: 5.0 mg/kg/injection, schedule: Q01DX Z (ip), vehicle: saline): 6 of 6
T/C (dose: 80.0 mg/kg/injection, schedule: Q01DX010 (ip), vehicle: alkali diluted with saline): 131 % of control

O=C(O)c1[nH]c(=O)[nH]c(=O)c1F
T/C [15]: 138 % of control
T/C [16]: 127 and 133 % of control

C[C@]12C=CC(=O)C=C1CC[C@@H]1[C@@H]2[C@@H](O)C[C@@]2(C)[C@H]1CC[C@]2(O)C(=O)CO
survivor count [7]: 6 of 6

Oc1cc(CN(CCCl)CCCl)c(O)cc1CN(CCCl)CCCl
T/C (dose: 1.25 mg/kg/injection, schedule: Q01DX010 (ip), vehicle: saline): 125 % of control
T/C [15]: 125 % of control
T/C [16]: 125 % of control

CCN(CCNc1ccc(C)c2sc3cc(Cl)ccc3c(=O)c12)CC(C)O (centres undefined)
survivor count [17]: 5 of 6
survivor count (dose: 500.0 mg/kg/injection, schedule: Q01DX010 (ip), vehicle: saline): 0 of 6

CN(C)/N=N/c1nc[nH]c1C(N)=O
T/C [11]: 133 % of control
T/C (dose: 400.0 mg/kg/injection, schedule: Q01DX010 (ip), vehicle: saline): 138 % of control

O=CN(O)CC(=O)O
survivor count (dose: 125.0 mg/kg/injection, schedule: Q01DX010 (ip), vehicle: saline): 6 of 6
survivor count [17]: 6 of 6
